Record: PubChem BioAssay AID504791 (Drosophila RNAi Screening Center, 2011)
The deposit covers about 23,000 reagents; this is a random part of those with a known target gene and a result. Of all reagents, 199 (0.86%) got an active call. 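Plate-scaled ratios behind the calls are not deposited; printed light signals are raw; many rows marked increased or decreased are still called inactive.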 Unmarked entries are inactive. The numbers tell different reagents against one gene apart. Names joined by + are all predicted targets of the reagent. No sequences are given here.

Purpose: 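Genes whose knock-down strengthens or weakens small-RNA reporter silencing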 (primary screen)
Cell system: Drosophila S2-derived reporter cells
Knock-down reagent: long dsRNA against Drosophila genes, about 150-250 ng dsRNA per well (siRNA assay); about 80-120 ng (miRNA assay)
Timing: about 5 days (siRNA assay); about 4 days (miRNA assay)
Treatment: copper sulfate induction of reporters: 25 µM (siRNA assay); 200 mM stated (miRNA assay), 1-2 days before reading
Measurement: 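Per-well ratio of Renilla over firefly light, expressed relative to that plate's average ratio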
Reading the numbers: siRNA reporter hit score: higher = 3 marks a strong hit with raised ratio; -3 a strong hit with lowered ratio
Rule for the call: 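a well was a first-pass pick when its plate-scaled ratio rose above 1.5 (siRNA assay) or 1.6 (miRNA assay), or dropped below 0.6; a gene counted only if two separate dsRNAs agreed on retest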

Target gene	dsRNA no.	siRNA reporter hit score	stable siRNA reporter change	miRNA reporter change	stable assay Renilla, run 1 (luminescence)	stable assay firefly, run 1 (luminescence)
CG34217	1				5278	4.59e5
eIF4B (eukaryotic translation initiation factor 4B)	1				4828	4.10e5
CG42539 (retired record)	1				5047	3.10e5
CG42539 (retired record)	2				8302	3.70e5
CG6420	1				7438	5.44e5
Nep1 (Neprilysin 1)	1				7487	3.54e5
Nep1 (Neprilysin 1)	2				4372	1.74e5
Atg10 (Autophagy-related 10)	1				6912	4.94e5
mthl11 (methuselah-like 11)	1				5371	4.05e5
Ptpmeg2 (Protein tyrosine phosphatase Meg2)	1				4471	3.37e5
Ptpmeg2 (Protein tyrosine phosphatase Meg2)	2				5942	3.56e5
Ptpmeg2 (Protein tyrosine phosphatase Meg2)	3				5155	3.94e5
CG16984	1				6706	3.51e5
Mi-2 + Su(Tpl)	1				4731	3.36e5
Jabba	1				9991	3.80e5
odd (odd skipped)	1				6019	2.32e5
odd (odd skipped)	2				4671	3.42e5
CG9570	1				5384	5.30e5
CG15177	1				7265	4.37e5
Cluap1 (Clusterin associated protein 1)	1				3176	3.86e5
CG7328	1				7799	4.08e5
CG8366	1				6775	5.08e5
Nsf2 (N-ethylmaleimide-sensitive factor 2)	1				8813	5.56e5
jus (julius seizure)	1			reporter ratio lowered past the hit cutoff	5214	2.37e5
jus (julius seizure)	2				6351	4.66e5
jus (julius seizure)	3				4459	3.30e5
Tspo (Translocator protein)	1				1.15e5	3.17e5
Dus4 (Dihydrouridine synthase 4)	1				1.51e5	1.27e6
SMC2 (Structural maintenance of chromosomes 2)	1				9043	3.77e5
CheB38c (Chemosensory protein B 38c)	1				6710	4.78e5
CG15260	1				7426	4.01e5
CG31207	1				9315	6.09e5
CAP	1				9230	5.16e5
CAP	2				8708	6.06e5
CAP	3				4947	2.86e5
CAP	4				6927	4.52e5
CAP	5				6669	4.52e5
CG12948	1				7207	3.43e5
GluRIID (Glutamate receptor IID)	1				9251	5.58e5
CG5810	1				8059	4.18e5
CG5810	2				9686	6.50e5
Tfb1 (Transcription factor B1)	1	-3			7167	4.36e5
CG31548	1				5328	5.56e5
GluRS-m (Glutamyl-tRNA synthetase, mitochondrial)	1				7683	3.30e5
CG15429	1				8287	5.55e5
Leash	1				6214	3.72e5
CG18636	1				3868	2.66e5
CG14327	1				7825	4.35e5
Polr1H (RNA polymerase I subunit H)	1				9434	4.61e5
CG6125	1				7631	4.23e5
eIF3i (eukaryotic translation initiation factor 3 subunit i)	1				8789	7.84e5
Dph5 (Diphthamide methyltransferase)	1				8023	3.24e5
CG17612	1				33563	5.74e5
pHCl-2 (pH-sensitive chloride channel 2)	1				7486	3.97e5
CG10183	1				7838	3.67e5
CG34024 (retired record)	1				7287	4.58e5
Ir60b (Ionotropic receptor 60b)	1				6510	3.02e5
S1P (Site-1 protease)	1				7554	5.41e5
pncr003:2L (retired record)	1				8918	5.97e5
CG6709 + Hez	1				6622	3.80e5
CG6709 + Hez	2				5806	3.69e5
CG5823	1				7291	3.07e5
CG31139	1				9447	5.28e5
CG4716	1				8164	5.13e5
Brd8 (Bromodomain containing 8)	1				10079	6.07e5
vir (virilizer)	1				7490	2.99e5
CG31924	1				7175	4.41e5
CG3708	1				6270	5.18e5
CG34224	1				6939	3.68e5
CG7985	1				6835	3.00e5
barr (barren)	1		reporter ratio raised past the hit cutoff (active)		9097	3.26e5
Act5C (Actin 5C)	1				6539	5.09e5
CG14073	1				6627	4.14e5
CG5674	1		reporter ratio raised past the hit cutoff		5111	1.68e5
CG5674	2				3420	2.63e5
CG12880	1				7123	4.26e5
CG42354 + CG42353	1				5920	2.51e5
Pepck2 (Phosphoenolpyruvate carboxykinase 2)	1				6118	3.59e5
CG13476	1				7954	5.08e5
CG13047	1				7722	4.49e5
CG5850	1				9223	5.26e5
CG30286	1				6743	4.42e5
Baldspot	1				6562	3.80e5
CG40485	1				5216	3.29e5
CG13607	1				8442	4.50e5
CG15333	1				5594	2.87e5
CG15333	2				5526	3.06e5
Dh44 (Diuretic hormone 44)	1				7080	4.94e5
Dh44 (Diuretic hormone 44)	2				6812	3.94e5
CG11695	1				5639	4.85e5
CG9240	1				4872	3.75e5
snz (snazarus)	1				6623	4.06e5
CG14696	1				6663	3.61e5
CG8507	1				7675	4.12e5
Cyp309a1 (Cytochrome P450 309a1)	1				7500	4.47e5
CG30356	1				5055	4.90e5
CG13358	1				6511	4.06e5
CG11997	1				6742	4.66e5
CG2852	1				6038	4.09e5
CG15642	1				5407	4.02e5
CG33127	1				6523	4.72e5
RpS21 (Ribosomal protein S21)	1				3499	4.02e5
Sc2	1				7702	4.63e5
CG13692	1				7726	4.38e5
Sf3a1 (Splicing factor 3a subunit 1)	1		reporter ratio lowered past the hit cutoff (active)		7935	5.32e5
CG3982	1		reporter ratio raised past the hit cutoff		4748	1.89e5
CG3982	2				5172	3.34e5

Records above called active, once more:
Target gene	dsRNA no.	siRNA reporter hit score	stable siRNA reporter change	miRNA reporter change	stable assay Renilla, run 1 (luminescence)	stable assay firefly, run 1 (luminescence)
barr (barren)	1		reporter ratio raised past the hit cutoff (active)		9097	3.26e5
Sf3a1 (Splicing factor 3a subunit 1)	1		reporter ratio lowered past the hit cutoff (active)		7935	5.32e5
